Data on one molecule can be found in article doi:10.1101/658492.

By UniProt entry, the sequences of proteins in these tests, tags left out.
UniProt Q6KC79: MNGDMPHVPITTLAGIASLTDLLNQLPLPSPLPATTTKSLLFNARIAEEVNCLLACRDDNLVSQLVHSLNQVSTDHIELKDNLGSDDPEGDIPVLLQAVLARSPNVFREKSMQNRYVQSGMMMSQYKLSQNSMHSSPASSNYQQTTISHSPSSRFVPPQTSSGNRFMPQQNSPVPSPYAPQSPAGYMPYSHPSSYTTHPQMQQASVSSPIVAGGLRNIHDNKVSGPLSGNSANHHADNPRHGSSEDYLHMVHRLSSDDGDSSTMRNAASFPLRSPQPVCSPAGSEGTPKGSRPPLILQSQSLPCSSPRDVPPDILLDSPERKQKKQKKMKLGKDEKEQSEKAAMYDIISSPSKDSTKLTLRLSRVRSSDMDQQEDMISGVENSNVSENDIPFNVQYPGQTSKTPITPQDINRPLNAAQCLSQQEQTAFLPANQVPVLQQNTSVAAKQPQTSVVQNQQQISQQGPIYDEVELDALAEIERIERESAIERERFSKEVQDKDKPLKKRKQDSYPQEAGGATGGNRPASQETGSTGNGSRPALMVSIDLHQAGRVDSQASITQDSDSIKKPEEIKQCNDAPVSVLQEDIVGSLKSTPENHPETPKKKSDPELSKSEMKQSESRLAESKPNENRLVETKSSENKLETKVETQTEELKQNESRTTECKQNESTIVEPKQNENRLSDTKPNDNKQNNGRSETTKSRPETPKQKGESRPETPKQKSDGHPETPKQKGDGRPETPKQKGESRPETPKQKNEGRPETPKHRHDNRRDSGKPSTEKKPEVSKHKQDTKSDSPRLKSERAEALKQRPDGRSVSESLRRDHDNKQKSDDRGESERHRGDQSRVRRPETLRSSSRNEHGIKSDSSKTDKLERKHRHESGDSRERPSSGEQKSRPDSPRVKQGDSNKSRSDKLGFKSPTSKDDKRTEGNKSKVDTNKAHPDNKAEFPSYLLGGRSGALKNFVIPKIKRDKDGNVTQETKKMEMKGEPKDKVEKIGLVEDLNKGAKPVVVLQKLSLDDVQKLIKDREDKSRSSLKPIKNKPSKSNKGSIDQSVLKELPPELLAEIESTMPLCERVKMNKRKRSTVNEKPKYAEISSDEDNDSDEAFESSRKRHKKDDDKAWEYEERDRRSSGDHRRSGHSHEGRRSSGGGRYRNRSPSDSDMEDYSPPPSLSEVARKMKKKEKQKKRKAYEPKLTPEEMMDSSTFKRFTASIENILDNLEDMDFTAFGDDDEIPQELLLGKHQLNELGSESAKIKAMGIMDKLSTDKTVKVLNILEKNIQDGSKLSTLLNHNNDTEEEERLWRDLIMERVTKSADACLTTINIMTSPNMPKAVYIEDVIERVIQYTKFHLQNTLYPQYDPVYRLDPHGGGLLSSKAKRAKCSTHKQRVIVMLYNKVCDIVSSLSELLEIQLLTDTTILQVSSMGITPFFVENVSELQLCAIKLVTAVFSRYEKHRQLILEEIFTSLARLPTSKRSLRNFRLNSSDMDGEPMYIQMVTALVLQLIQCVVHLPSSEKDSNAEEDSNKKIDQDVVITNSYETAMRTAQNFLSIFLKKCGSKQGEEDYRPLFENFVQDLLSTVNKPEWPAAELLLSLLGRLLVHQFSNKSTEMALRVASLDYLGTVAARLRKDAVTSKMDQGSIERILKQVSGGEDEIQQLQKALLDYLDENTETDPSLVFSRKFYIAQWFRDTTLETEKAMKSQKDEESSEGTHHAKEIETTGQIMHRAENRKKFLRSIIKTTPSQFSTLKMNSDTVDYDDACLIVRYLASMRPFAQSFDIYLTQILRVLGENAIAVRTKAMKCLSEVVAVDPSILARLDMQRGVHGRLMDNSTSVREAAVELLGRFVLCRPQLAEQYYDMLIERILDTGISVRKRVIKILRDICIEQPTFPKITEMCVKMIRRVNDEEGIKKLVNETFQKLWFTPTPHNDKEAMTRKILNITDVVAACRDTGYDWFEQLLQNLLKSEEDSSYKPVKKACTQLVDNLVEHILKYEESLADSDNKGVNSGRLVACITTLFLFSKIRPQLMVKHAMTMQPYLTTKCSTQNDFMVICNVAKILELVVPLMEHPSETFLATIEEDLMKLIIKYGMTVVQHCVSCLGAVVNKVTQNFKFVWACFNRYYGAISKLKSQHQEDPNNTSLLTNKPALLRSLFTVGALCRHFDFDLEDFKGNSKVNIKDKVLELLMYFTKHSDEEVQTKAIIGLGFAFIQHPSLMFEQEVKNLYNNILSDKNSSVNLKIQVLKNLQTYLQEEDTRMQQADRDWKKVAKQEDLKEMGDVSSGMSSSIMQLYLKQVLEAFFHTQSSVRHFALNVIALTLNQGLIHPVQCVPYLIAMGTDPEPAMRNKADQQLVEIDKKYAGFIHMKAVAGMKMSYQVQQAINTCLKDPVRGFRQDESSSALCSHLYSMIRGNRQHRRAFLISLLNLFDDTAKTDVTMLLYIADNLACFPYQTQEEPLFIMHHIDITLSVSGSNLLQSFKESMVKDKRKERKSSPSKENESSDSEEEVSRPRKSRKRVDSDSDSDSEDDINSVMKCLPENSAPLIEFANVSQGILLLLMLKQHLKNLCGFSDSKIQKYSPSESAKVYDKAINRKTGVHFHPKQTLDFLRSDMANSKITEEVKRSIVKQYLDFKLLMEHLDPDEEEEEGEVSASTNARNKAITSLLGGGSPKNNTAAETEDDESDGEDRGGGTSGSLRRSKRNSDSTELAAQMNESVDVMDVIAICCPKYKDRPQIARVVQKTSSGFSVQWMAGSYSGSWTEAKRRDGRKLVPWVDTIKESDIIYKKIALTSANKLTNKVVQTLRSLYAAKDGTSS

What all share (experiment): co-IP
The target of experiment [1] is FLAG-tagged full-length NIPBL (human) (UniProt Q6KC79).
The target of experiment [2] is NIPBL (human) (UniProt Q6KC79).
For another experiment, the target named is T1, Rad21 (UniProt O60216).
T1 sequence: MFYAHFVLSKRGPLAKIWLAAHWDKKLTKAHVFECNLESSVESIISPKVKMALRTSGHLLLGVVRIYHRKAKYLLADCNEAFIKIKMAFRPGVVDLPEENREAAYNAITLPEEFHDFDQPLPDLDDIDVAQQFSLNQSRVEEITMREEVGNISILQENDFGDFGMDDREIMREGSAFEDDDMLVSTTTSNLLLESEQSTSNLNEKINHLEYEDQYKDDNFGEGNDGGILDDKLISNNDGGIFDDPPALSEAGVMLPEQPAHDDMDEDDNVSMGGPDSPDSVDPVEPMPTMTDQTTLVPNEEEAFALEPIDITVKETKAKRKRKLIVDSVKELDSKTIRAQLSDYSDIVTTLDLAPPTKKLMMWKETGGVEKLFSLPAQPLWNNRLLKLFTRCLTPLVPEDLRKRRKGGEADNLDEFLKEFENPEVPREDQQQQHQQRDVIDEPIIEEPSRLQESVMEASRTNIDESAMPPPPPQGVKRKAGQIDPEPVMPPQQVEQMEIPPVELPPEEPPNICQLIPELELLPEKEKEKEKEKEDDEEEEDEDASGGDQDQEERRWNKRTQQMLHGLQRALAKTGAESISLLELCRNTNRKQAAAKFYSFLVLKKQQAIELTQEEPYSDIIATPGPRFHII

In experiment [3] the target is NIPBL (human) (UniProt Q6KC79). The source holds these as a separate data set.
Experiment [4] has as its target NIPBL (human) (UniProt Q6KC79). The source holds these as a separate data set.

Where two headings read alike, the source gives them in different places. No constants are given. Whether binding was seen depends on the method and setting. Binding seen in cells or lysates may run through a third protein. Some binding calls cover weakened binding; strength is not graded here.

B1: treacle (protein, UniProt Q13428 1-1488)
chain: MAEARKRRELLPLIYHHLLRAGYVRAAREVKEQSGQKCFLAQPVTLLDIYTHWQQTSELGRKRKAEEDAALQAKKTRVSDPISTSESSEEEEEAEAETAKATPRLASTNSSVLGADLPSSMKEKAKAETEKAGKTGNSMPHPATGKTVANLLSGKSPRKSAEPSANTTLVSETEEEGSVPAFGAAAKPGMVSAGQADSSSEDTSSSSDETDVEGKPSVKPAQVKASSVSTKESPARKAAPAPGKVGDVTPQVKGGALPPAKRAKKPEEESESSEEGSESEEEAPAGTRSQVKASEKILQVRAASAPAKGTPGKGATPAPPGKAGAVASQTKAGKPEEDSESSSEESSDSEEETPAAKALLQAKASGKTSQVGAASAPAKESPRKGAAPAPPGKTGPAVAKAQAGKREEDSQSSSEESDSEEEAPAQAKPSGKAPQVRAASAPAKESPRKGAAPAPPRKTGPAAAQVQVGKQEEDSRSSSEESDSDREALAAMNAAQVKPLGKSPQVKPASTMGMGPLGKGAGPVPPGKVGPATPSAQVGKWEEDSESSSEESSDSSDGEVPTAVAPAQEKSLGNILQAKPTSSPAKGPPQKAGPVAVQVKAEKPMDNSESSEESSDSADSEEAPAAMTAAQAKPALKIPQTKACPKKTNTTASAKVAPVRVGTQAPRKAGTATSPAGSSPAVAGGTQRPAEDSSSSEESDSEEEKTGLAVTVGQAKSVGKGLQVKAASVPVKGSLGQGTAPVLPGKTGPTVTQVKAEKQEDSESSEEESDSEEAAASPAQVKTSVKKTQAKANPAAARAPSAKGTISAPGKVVTAAAQAKQRSPSKVKPPVRNPQNSTVLARGPASVPSVGKAVATAAQAQTGPEEDSGSSEEESDSEEEAETLAQVKPSGKTHQIRAALAPAKESPRKGAAPTPPGKTGPSAAQAGKQDDSGSSSEESDSDGEAPAAVTSAQVIKPPLIFVDPNRSPAGPAATPAQAQAASTPRKARASESTARSSSSESEDEDVIPATQCLTPGIRTNVVTMPTAHPRIAPKASMAGASSSKESSRISDGKKQEGPATQVSKKNPASLPLTQAALKVLAQKASEAQPPVARTQPSSGVDSAVGTLPATSPQSTSVQAKGTNKLRKPKLPEVQQATKAPESSDDSEDSSDSSSGSEEDGEGPQGAKSAHTLGPTPSRTETLVEETAAESSEDDVVAPSQSLLSGYMTPGLTPANSQASKATPKLDSSPSVSSTLAAKDDPDGKQEAKPQQAAGMLSPKTGGKEAASGTTPQKSRKPKKGAGNPQASTLALQSNITQCLLGQPWPLNEAQVQASVVKVLTELLEQERKKVVDTTKESSRKGWESRKRKLSGDQPAARTPRSKKKKKLGAGEGGEASVSPEKTSTTSKGKAKRDKASGDVKEKKGKGSLGSQGAKDEPEEELQKGMGTVEGGDQSNPKSKKEKKKSDKRKKDKEKKEKKKKAKKASTKDSESPSQKKKKKKKKTAEQTV
Consider B1, for which the binding entry is “binds” in experiment [1]; “binds” in the experiment with NIPBL (human) [2]; “no binding” with Rad21; “binds” with NIPBL (human) [3]; “binds” with NIPBL (human) [4].
